According to patent US11787816B2, “Chlorin compound, and preparation and use thereof” (Southwest Jiaotong University, priority 2021, dated 2023):

How the values were obtained:
Assay type in all cases: cell-based
[1] = system: human hepatocellular carcinoma cells (huh-7 line); test: Enrichment in tumor cells (flow cytometry fluorescence), huh-7; settings: huh-7 cells, 10 μg/mL
[2] = system: murine mammary carcinoma cells (4T1 line); test: Enrichment in tumor cells (flow cytometry fluorescence), 4T1; settings: 4T1 cells, 10 μg/mL
[3] = system: Human cervical cancer cells (Hela line); test: Enrichment in tumor cells (flow cytometry fluorescence), Hela; settings: 10 μg/mL

Substance | incubation time after which the concentration in the cells was basically stable [1] | incubation time after which the concentration in the cells was basically stable [2] | incubation time after which the concentration in the cells was basically stable [3]
3-hexoxymethyl-3-devinyl-chlorin e4 disodium salt [CEFO] | 10 h | 8 h | 10 h
3-n-hexylaminomethyl-3-devinyl-chlorin e4 disodium salt [CEFN] | 10 h | 8 h | 10 h
